Measurements from paper PMC11994786.
No constants are given. Whether binding was seen depends on the method and setting. Binding seen in cells or lysates may run through a third protein. A yes stands for co-enrichment or nearness to the bait. Other partners may have been found.

Sequences of proteins named here, by UniProt entry; tags and fusion partners are left off.
UniProt P69566: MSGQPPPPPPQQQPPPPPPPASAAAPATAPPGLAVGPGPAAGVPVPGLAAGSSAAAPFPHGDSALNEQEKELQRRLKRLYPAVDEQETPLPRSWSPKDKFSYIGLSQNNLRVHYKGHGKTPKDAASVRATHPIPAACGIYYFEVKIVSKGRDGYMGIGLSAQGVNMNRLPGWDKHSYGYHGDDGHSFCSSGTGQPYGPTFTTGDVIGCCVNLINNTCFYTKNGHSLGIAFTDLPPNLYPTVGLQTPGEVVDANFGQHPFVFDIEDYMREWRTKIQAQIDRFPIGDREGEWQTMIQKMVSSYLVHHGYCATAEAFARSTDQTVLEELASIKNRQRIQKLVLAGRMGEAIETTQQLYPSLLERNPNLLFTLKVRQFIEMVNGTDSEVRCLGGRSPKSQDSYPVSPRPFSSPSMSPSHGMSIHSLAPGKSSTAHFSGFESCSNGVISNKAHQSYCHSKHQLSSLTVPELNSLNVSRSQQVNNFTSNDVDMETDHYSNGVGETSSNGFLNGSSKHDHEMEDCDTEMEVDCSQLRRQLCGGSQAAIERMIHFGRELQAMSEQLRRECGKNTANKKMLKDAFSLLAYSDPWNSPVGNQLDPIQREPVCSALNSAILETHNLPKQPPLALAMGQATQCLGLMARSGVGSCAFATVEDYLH

B1: Mccc1 (Methylcrotonyl-CoA Carboxylase subunit 1) (protein, UniProt Q99MR8 39-717)
chain: TTPGGSITKVLIANRGEIACRVIRTAKKMGVQSVAVYSEADRNSMHVDMADEAYSIGPAPSQQSYLAMEKIIQVAKSSAAQAIHPGYGFLSENMEFAELCKQEGIIFIGPPSSAIRDMGIKSTSKSIMAAAGVPVVEGYHGKDQSDQCLREHAGKIGYPVMIKAVRGGGGKGMRIVRSEREFQEQLESARREAKKSFNDDAMLIEKFVDTPRHVEVQVFGDHHGNAVYLFERDCSVQRRHQKIIEEAPAPGINPEVRRKLGEAAVRAAKAVKYVGAGTVEFIMDSRHNFYFMEMNTRLQVEHPVTEMITGTDLVEWQLRIAAGEKIPLSQEEIPLQGHAFEARIYAEDPDNNFMPGAGPLVHLSTPSADMSTRIETGVRQGDEVSVHYDPMIAKLVVWASDRQSALSKLRYCLHQYNIVGLRSNVDFLLRLSGHPEFEAGNVHTDFIPQHHKDLLPSHSTIAKESVCQAALGLILKEKEMTSAFKLHTQDQFSPFSFSSGRRLNISYTRNMTLRSGKSDIVIAVTYNRDGSYDMQIDNKSFRVLGDLSSEDGCTYLKSSINGVARKSKFILLDNTVHLFSMEGSIEVGIPVPKYLSPVSAEGAQGGTIAPMTGTIEKVFVKAGDRVKAGDSLMVMIAMKMEHTIKAPKDGRIKKVFFSEGAQANRHAPLVEFEEEESDK
B2: Atp5po (ATP synthase peripheral stalk subunit OSCP) (protein, UniProt Q9DB20 24-213)
chain: FAKLVRPPVQVYGIEGRYATALYSAASKEKKLDQVEKELLRVGQLLKDPKVSLAVLNPYIKRTVKVKSLNDITKREKFSPLTANLMNLLAENGRLGNTQGIISAFSTIMSVHRGEVPCTVTTASPLDDAVLSELKTVLKSFLSPNQILKLEIKTDPSIMGGMIVRIGEKYVDMSAKSKIQKLSKAMREML
B3: Rmnd5A (Required for meiotic nuclear division 5 homolog A) (protein, UniProt Q80YQ8 1-391)
chain: MDQCVTVERELEKVLHKFSGYGQLCERGLEELIDYTGGLKHEILQSHGQDAELSGTLSLVLTQCCKRIKDTVQKLASDHKDIHSSVSRVGKAIDKNFDSDISSVGIDGCWQADSQRLLNEVMVEHFFRQGMLDVAEELCQESGLSVDPSQKEPFVELNRILEALKVRVLRPALEWAVSNREMLIAQNSSLEFKLHRLYFISLLMGGTTNQREALQYAKNFQPFALNHQKDIQVLMGSLVYLRQGIENSPYVHLLDANQWADICDIFTRDACALLGLSVESPLSVSFSAGCVALPALINIKAVIEQRQCTGVWNQKDELPIEVDLGKKCWYHSIFACPILRQQTTDNNPPMKLVCGHIISRDALNKMFNGSKLKCPYCPMEQSPGDAKQIFF
B4: Cux1 (Cut Like Homeobox 1) (protein, UniProt H3BJN3 1-678)
chain: MAANVGSMFQYWKRFDLQQLQRELDATATVLANRQDESEQSRKRLIEQSREFKKNTPEDLRKQVAPLLKSFQGEIDALSKRSKEAEAAFLTVYKRLIDVPDPVPALDVGQQLEIKVQRLHDIETENQKLRETLEEYNKEFAEVKNQEVTIKALKEKIREYEQTLKSQAETIALEKEQKLQNDFAEKERKLQETQMSTTSKLEEAEHKLQTLQTALEKTRTELFDLKTKYDEETTAKADEIEMIMTDLERANQRAEVAQREAETLREQLSSANHSLQLASQIQKAPDVEQAIEVLTRSSLEVELAAKEREIAQLVEDVQRLQASLTKLRENSASQISQLEQQLNAKNSTLKQLEEKLKGQADYEEVKKELNTLKSMEFAPSEGAGTQDSTKPLEVLLLEKNRSLQSENATLRISNSDLSGRCAELQIHLTEATAKAVEQKELIARLEQDLSTIQSIQRPDAEGASEQGLEKIPEPIKEATALFYGPSMSSSGTLPEGQVDSLLSIISSQRERFRTRNQELEAESRMAQHTIQALQSELDSLRADNIKLFEKIKFLQSYPGRGIGSDDTELRYSSQYEERLDPFSSFSKRERQRKYLGLSPWDKATLGMGRLILSNKMARTISFFYTLFLHCLVFLVLYKLAWSESVERDCAATCAKKFADHLHKFHESDNGAAAGDLWQ
B5: Prdx5 (Peroxiredoxin 5) (protein, UniProt P99029 49-210)
chain: MAPIKVGDAIPSVEVFEGEPGKKVNLAELFKGKKGVLFGVPGAFTPGCSKTHLPGFVEQAGALKAKGAQVVACLSVNDVFVIEEWGRAHQAEGKVRLLADPTGAFGKATDLLLDDSLVSLFGNRRLKRFSMVIDNGIVKALNVEPDGTGLTCSLAPNILSQL
B6: Dpm3 (protein, UniProt Q9D1Q4 1-92)
chain: MTKLTQWLWGLALLGSAWAALTMGALGLELPFPCREVLWPLPAYLLVSAGCYALGTVGYRVATFHDCEDAARELQSQIVEARADLARRGLRF

Experiments:
[1] = biological target: RanBP9-3xHA (Ran Binding Protein 9 fused to three copies of the HA tag) (mouse) (UniProt P69566); experiment: affinity purification with mass spectrometry; anti-HA magnetic beads on 1 mg pre-cleared whole lung lysate of LysMBP9X mice, overnight at 4 °C, on-bead trypsin digestion, LC-MS/MS; hits significant (p ≤ 0.05) against HA-IP from WT mice and Ig-IPs
[2] = biological target: RanBP9-V5 (Ran Binding Protein 9 with a V5 tag at the C-terminus) (mouse) (UniProt P69566); experiment: affinity purification with mass spectrometry; anti-V5 magnetic beads on 1 mg pre-cleared whole lung lysate of LysMBP9X mice, overnight at 4 °C, on-bead trypsin digestion, LC-MS/MS; hits significant (p ≤ 0.05) against V5-IP from WT mice and Ig-IPs

binding [1]	binding [2]	Binder
binds	binds	B1
binds	binds	B2
binds	binds	B3
–	binds	B4
–	binds	B5
–	binds	B6
